Assay results from PMC6298406.
These are yes or no findings as the source states them, for the method shown. Binding seen in cells or lysates may run through a third protein. A yes stands for co-enrichment or nearness to the bait. Other partners may have been found.

Chains of the proteins cited; added tags and fusions are not shown. Residues count along the entry.
UniProt O14763, residues 56-440: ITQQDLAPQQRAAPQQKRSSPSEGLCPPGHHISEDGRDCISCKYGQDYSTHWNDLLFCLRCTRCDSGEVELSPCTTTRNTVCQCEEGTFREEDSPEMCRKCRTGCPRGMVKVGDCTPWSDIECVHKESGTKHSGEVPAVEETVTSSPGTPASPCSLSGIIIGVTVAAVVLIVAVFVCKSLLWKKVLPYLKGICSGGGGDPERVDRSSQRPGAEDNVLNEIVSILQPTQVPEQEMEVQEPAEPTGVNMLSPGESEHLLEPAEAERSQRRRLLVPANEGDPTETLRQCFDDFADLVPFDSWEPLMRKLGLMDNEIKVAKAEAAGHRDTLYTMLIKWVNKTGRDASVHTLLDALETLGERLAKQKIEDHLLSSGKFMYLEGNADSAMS
UniProt P55060: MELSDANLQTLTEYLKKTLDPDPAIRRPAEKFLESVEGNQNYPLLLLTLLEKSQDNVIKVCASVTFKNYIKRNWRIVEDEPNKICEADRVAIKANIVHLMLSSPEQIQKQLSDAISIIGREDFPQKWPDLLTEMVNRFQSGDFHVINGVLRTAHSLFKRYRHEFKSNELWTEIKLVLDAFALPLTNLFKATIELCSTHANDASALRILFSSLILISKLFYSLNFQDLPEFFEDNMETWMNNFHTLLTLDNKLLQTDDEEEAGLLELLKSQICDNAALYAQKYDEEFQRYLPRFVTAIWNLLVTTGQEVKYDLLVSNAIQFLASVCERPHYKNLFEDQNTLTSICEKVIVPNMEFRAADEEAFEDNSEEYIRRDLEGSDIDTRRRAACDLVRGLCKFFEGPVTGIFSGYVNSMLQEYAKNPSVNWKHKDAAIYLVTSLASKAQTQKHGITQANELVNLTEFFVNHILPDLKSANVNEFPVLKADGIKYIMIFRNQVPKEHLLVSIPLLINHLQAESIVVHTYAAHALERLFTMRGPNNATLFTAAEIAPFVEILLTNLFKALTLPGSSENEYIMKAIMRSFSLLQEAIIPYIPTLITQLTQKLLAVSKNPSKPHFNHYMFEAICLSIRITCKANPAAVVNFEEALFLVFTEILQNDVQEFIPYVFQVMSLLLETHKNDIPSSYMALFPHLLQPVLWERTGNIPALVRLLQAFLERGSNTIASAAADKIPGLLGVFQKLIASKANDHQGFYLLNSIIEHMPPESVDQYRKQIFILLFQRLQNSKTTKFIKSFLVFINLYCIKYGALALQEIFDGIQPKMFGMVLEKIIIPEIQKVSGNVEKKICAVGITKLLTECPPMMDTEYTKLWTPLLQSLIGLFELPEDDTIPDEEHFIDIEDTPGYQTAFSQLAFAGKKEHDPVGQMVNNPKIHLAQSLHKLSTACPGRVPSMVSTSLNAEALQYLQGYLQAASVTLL
UniProt P08238: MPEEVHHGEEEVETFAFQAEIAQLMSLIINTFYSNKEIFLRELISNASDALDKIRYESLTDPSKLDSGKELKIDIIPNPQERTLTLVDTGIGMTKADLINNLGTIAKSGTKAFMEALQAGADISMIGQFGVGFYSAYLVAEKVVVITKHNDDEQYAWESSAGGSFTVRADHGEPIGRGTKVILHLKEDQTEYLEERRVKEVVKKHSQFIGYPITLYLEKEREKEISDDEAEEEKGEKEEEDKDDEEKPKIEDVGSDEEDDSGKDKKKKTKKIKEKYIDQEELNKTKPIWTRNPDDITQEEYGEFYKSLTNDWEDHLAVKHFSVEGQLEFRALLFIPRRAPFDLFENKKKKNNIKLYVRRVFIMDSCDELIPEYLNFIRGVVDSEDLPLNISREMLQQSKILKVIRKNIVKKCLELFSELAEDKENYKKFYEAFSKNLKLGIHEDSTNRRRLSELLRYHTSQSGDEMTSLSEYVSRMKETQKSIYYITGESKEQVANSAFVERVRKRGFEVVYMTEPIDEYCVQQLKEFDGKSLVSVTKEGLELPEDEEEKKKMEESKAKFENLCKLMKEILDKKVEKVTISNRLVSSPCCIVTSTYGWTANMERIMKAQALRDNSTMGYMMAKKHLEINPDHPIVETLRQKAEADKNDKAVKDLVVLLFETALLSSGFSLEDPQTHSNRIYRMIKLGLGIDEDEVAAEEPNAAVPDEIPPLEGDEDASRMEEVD

Molecular target: Strep-tagged DR5 fusion protein (UniProt O14763)
Assay: affinity purification with mass spectrometry; co-IP of Strep-DR5 protein complexes from transfected 293T cells with an anti-DR5 monoclonal antibody; SDS-PAGE, silver staining, labelled bands identified by MS

| binding | Substance |
| --- | --- |
| binds | Exportin-2 (from UniProt P55060 1-971) |
| binds | Heat shock protein 90 (HSP 90-beta) (from UniProt P08238 1-724) |
